Measurements as given in the supplement of paper PMC5949888.
Most values lie at the floor of the assay. Slopes are relative: functional sequences can read slightly below zero.

Tested on: Saccharomyces cerevisiae PS128 hsf1 delta, HSF1(1-493) fusion
Test: growth estimate (transactivation domain function in HSF1 fusion, heat-shock survival) (a.u. (slope of normalised read count over time)); higher = stronger growth at 37°C, i.e. more transactivation activity
Conditions: library: random library
Description: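 Random 60-nt DNA library encoding peptides of up to 20 aa, fused to the C-terminus of yeast HSF1 residues 1-493 (C-terminal TAD deleted) and expressed from the native HSF1 promoter on a CEN plasmid in hsf1-deleted S. cerevisiae PS128. Cells were selected at 37°C on -trp 5-FOA plates for 0, 2, 4, 6 and 8 days and amplicons were sequenced. Growth estimate is the slope of a robust linear fit of total-sum-normalised read counts (normalised to the first time point) over time, using at least 2 replicates. Sequences are classed functional (TAD activity) above a threshold of -0.13, set from stop-codon control sequences.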

| Substance | growth estimate |
| --- | --- |
| HTCRRLGGGRASKPAIL | < -0.25 |
| HTDTSK | < -0.25 |
| HTGDIAMIFV | < -0.25 |
| HTGLGVHLLTM | < -0.25 |
| HTPFGGRCRGVSNRRVLEYQ | < -0.25 |
| HTQRPPHRV | < -0.25 |
| HTQVSERVYVGGPRRTSETD | < -0.25 |
| HTR | < -0.25 |
| HTRFRQTRAT | < -0.25 |
| HTTAQWLDSLGLAGTTLFAR | < -0.25 |
| HTTLDFKLGGLVRSGFDCGS | < -0.25 |
| HTTPATTILLV | < -0.25 |
| HTVFAGEDRGTVVDRETLYR | < -0.25 |
| HTWFSGLLLWHAMFRSLRPT | < -0.25 |
| HVDDLTQAGNIQPMKVLR | < -0.25 |
| HVDIVSG | < -0.25 |
| HVETEQCCSYGVPNNRTSVS | < -0.25 |
| HVGDVWP | < -0.25 |
| HVGGVSDIRLGVPLVIGLQC | < -0.25 |
| HVHDILEQTPGHVQMVDGII | < -0.25 |
| HVHPLA | < -0.25 |
| HVHRAGPYKCSRVWSSESGG | < -0.25 |
| HVKALSKAMAAMH | < -0.25 |
| HVKCTPSRPQPL | < -0.25 |
| HVKHTLGKSVRFLPFLCFPR | < -0.25 |

Individual results from the results shown.
Value for HTQVSERVYVGGPRRTSETD under growth estimate: < -0.25
Value for HTR under growth estimate: < -0.25
Value for HVGGVSDIRLGVPLVIGLQC under growth estimate: < -0.25
Value for HVHPLA under growth estimate: < -0.25
Value for HVGDVWP under growth estimate: < -0.25

Later entries.

| Substance | growth estimate |
| --- | --- |
| HVKRS | < -0.25 |
| HVLECAGSTIR | -0.243 |
| HVLELTSYEELLQRTLCMCT | < -0.25 |
| HVLFG | < -0.25 |
| HVLFRTSGVVT | -0.246 |
| HVLLAGPPADTVERKTE | < -0.25 |
| HVMAVVAGEVCRGGYFKYSL | < -0.25 |
| HVNDNITP | < -0.25 |
| HVPS | < -0.25 |
| HVRLEGFVKGLDYRGSQQSV | < -0.25 |
| HVSDIDIPPGTSRGHAPETC | < -0.25 |
| HVSPVVLG | < -0.25 |
| HVSSRFADEEDRLCY | < -0.25 |
| HVTARRYVSVHSLLVSFRPG | < -0.25 |
| HVVVRPSLRPFIEFVQAPFL | < -0.25 |
| HVWTCNYWHFSNALHTKHFP | < -0.25 |
| HWAFRWDRRSLPTQWVCAAC | < -0.25 |
| HWGRKRYGQGIFIFVPLSLY | < -0.25 |
| HWRVVWEGNAGGAPH | < -0.25 |
| HWS | < -0.25 |
| HWTYGGVNTRPVRMSGETR | < -0.25 |
| HYFRRSCMSETVAGRRGHCP | < -0.25 |
| HYLCSLTRSCH | < -0.25 |
| HYLTALLRRSSGIFKSPSRL | < -0.25 |
| HYTATPQFRSLCD | < -0.25 |

| Substance | growth estimate |
| --- | --- |
| HYVWPGTLH | < -0.25 |
| HYWARPYNCVDKRK | < -0.25 |
| IAAELRDREALGCPGTNPLG | < -0.25 |
| IAARIEQRGPISGYDSGTQM | < -0.25 |
| IAATSQ | < -0.25 |
| IADAGDAPSREATSPISSAH | < -0.25 |
| IADFALSQQS | < -0.25 |
| IADSLQRCRRSETLFYYGTA | < -0.25 |
| IAGGNIFN | < -0.25 |
| IAGLNVKQIL | < -0.25 |
| IAHPLATTRGSST | < -0.25 |
| IAIRFDVDRL | < -0.25 |
| IAIYS | < -0.25 |
| IALGPTRATGPNPRLSS | < -0.25 |
| IALRSPGPTPSVGGVIMSAA | < -0.25 |
| IANSEHVK | < -0.25 |
| IAPWSAIFNQV | < -0.25 |
| IAQLGGIREGASYLGLSRHA | < -0.25 |
| IARPLEHYRELGGGIRIFEQ | < -0.25 |
| IASDPRIERGHTRRLEMPPG | -0.246 |
| IASRFSRRGIGWLH | < -0.25 |
| IATQMTNIGELRMPRDTVL | < -0.25 |
| IAVTTFSV | < -0.25 |
| IAYIWKFGATAMGLPGAFYH | < -0.25 |
| ICDGLIGVLVGTTIATRS | < -0.25 |

| Substance | growth estimate |
| --- | --- |
| ICETVAKRAQESSDDQVLLD | < -0.25 |
| ICF | < -0.25 |
| ICFNRCC | < -0.25 |
| ICGDC | < -0.25 |
| ICGRGSFLPLFYMVLEDQNR | < -0.25 |
| ICIALTATPRGISKRLLTPT | < -0.25 |
| ICMLIMRWGRNGRSLRRLQV | < -0.25 |
| ICSMDIAPD | < -0.25 |
| ICT | < -0.25 |
| ICTT | < -0.25 |
| IDEYT | < -0.25 |
| IDGN | < -0.25 |
| IDHGGRDSESGRD | < -0.25 |
| IDIGRCEGRPARFQSPQCSG | < -0.25 |
| IDKHHMIGQPVTYGTQRGDT | < -0.25 |
| IDLA | -0.184 |
| IDM | < -0.25 |
| IDPSGLDTRHPAQSEDAPSL | < -0.25 |
| IDPSGMHVGSV | < -0.25 |
| IDSGHYLT | < -0.25 |
| IDSSDYHHRRAQTMVDLTRL | < -0.25 |
| IDV | < -0.25 |
